Results taken from paper doi:10.1101/2025.06.18.660491.

Amino acid sequences for entries named in this document (tags omitted).
UniProt O15027: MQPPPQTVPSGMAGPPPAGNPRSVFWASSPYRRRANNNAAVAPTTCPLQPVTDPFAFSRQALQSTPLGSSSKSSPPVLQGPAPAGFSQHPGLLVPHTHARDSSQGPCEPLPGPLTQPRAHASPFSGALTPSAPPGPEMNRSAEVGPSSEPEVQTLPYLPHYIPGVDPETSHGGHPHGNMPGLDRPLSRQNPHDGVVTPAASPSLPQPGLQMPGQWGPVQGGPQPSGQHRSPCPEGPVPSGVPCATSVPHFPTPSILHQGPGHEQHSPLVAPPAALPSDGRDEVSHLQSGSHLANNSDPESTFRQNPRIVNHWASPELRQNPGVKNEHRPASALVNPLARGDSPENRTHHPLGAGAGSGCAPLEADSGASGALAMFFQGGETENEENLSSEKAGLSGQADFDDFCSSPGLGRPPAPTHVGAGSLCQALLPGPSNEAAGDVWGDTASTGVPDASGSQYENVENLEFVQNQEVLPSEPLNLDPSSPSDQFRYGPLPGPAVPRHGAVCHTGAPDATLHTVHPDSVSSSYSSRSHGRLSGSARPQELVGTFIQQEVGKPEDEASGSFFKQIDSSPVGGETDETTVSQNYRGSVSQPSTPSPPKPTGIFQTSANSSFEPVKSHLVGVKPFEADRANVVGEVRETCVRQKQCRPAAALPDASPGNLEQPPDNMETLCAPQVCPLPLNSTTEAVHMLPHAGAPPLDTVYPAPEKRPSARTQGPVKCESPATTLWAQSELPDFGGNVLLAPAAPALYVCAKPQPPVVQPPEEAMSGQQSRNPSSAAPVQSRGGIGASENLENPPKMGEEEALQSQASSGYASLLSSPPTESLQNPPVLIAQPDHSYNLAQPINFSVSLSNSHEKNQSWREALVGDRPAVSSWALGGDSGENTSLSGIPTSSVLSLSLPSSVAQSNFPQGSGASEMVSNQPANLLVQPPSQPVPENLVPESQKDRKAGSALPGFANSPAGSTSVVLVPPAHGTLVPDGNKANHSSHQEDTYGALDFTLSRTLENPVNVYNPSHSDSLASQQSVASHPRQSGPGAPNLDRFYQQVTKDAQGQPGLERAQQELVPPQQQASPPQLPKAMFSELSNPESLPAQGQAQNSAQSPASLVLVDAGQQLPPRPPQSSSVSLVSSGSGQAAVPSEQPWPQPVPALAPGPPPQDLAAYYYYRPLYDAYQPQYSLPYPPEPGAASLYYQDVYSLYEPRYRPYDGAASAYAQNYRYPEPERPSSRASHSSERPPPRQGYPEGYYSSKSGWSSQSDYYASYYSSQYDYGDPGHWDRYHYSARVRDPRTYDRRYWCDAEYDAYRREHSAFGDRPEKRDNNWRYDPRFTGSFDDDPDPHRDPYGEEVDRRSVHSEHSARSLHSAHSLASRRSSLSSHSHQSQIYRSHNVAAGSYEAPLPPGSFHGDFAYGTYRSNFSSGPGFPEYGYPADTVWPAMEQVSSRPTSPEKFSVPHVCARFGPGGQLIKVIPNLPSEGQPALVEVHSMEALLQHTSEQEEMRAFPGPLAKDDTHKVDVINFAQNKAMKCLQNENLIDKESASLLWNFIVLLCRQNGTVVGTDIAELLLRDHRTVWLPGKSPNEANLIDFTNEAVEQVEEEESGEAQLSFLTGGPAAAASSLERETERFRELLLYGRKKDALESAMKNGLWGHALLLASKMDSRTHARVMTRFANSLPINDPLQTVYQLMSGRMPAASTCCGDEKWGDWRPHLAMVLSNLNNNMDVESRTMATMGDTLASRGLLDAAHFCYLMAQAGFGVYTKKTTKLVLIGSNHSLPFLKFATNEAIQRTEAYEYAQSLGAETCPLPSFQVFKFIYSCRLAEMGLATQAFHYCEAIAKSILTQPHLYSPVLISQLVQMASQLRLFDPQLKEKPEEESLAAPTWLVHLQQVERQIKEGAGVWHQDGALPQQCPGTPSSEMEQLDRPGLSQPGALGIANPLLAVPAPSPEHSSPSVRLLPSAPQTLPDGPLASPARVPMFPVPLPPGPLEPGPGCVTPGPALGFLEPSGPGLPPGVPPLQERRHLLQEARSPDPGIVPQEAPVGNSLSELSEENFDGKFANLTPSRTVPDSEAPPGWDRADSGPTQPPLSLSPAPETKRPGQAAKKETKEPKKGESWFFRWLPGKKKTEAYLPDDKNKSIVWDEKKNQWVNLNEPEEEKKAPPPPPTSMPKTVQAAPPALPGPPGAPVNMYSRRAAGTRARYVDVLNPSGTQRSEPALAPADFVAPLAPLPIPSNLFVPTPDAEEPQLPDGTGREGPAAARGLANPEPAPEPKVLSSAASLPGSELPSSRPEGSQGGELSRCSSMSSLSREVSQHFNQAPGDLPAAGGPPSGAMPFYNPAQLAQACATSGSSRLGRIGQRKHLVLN
UniProt Q15436: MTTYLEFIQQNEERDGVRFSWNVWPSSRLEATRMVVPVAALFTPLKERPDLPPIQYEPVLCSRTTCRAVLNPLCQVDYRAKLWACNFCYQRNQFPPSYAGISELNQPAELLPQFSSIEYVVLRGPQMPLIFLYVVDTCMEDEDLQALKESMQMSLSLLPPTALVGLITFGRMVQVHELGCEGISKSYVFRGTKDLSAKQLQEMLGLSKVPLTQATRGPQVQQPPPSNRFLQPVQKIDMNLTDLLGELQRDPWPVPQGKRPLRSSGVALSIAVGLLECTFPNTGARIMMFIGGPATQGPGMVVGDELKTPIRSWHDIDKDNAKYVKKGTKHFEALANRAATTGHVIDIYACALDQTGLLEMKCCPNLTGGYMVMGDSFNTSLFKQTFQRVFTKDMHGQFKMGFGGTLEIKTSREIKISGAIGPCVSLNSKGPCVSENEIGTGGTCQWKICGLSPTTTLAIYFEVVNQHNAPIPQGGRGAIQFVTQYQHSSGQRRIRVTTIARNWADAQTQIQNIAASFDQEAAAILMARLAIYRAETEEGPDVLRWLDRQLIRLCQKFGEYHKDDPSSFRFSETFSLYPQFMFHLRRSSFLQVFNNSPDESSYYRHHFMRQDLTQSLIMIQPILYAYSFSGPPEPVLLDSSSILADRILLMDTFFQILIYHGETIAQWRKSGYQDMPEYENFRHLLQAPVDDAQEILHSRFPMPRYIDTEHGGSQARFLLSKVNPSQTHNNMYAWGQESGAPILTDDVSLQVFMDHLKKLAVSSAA

Target: endogenous full-length Sec16 (human (endogenous in HeLa)) (UniProt O15027)
Assay: affinity purification with mass spectrometry

binding: binds
Substance: Sec23A (from UniProt Q15436 1-765)

These are yes or no findings as the source states them, for the method shown. Binding seen in cells or lysates may run through a third protein. Here binding means that the protein was enriched with, or labelled near, the bait; the list need not be complete.
